T. brucei: 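Whole-parasite assay of Trypanosoma brucei over 72 hours; the read-out is not stated. Tested at 30 µM. The record gives no direction; compounds that gave an IC50 in retests scored well above the rest, so higher reads as stronger inhibition. Values scatter widely below zero; nearly all retest evidence comes from the higher of the two concentrations used. Size under these conditions: about 64,000 compounds, about 940 of them at 50% or above in at least one test.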
Leishmania in macrophages: 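Cell assay of Leishmania donovani living inside macrophages; the read-out is not stated. Compounds at 30 µM. Direction is inferred from retests: higher values go with stronger inhibition. Size under these conditions: about 69,000 compounds, about 1,000 of them at 50% or above in at least one test.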

Each number is a percent effect as filed. The controls that fix the scale are not given in the record; negative values are as filed. Compounds were drawn at random from those tested, without regard to their results. Two or more numbers in one place are separate tests of the same structure; such repeats can differ widely.

With Cc1c(C(=O)N2CCSCC2)sc2nc(C(F)(F)F)ccc12 the screen gave T. brucei: -86.27%; Leishmania in macrophages: 32.18%.
With CC(C)Cc1nc(CS(=O)(=O)c2ccccc2)no1 the screen gave T. brucei: -23.71%; Leishmania in macrophages: -39.37%.
With Cc1ccc([C@@H]2CN(C(=O)c3ccsc3)C[C@H]2NC(=O)C2CC2)cc1 the screen gave T. brucei: 11.06%; Leishmania in macrophages: -9.554%.
With O=C(CCc1cccnc1)N1CCCCC1c1ccn2ccnc2n1 (configuration not stated) the screen gave T. brucei: 0.9633%; Leishmania in macrophages: 9.475% and 17.18%.
With Cc1cc2c(o1)CC(C)(C)CC2NC(=O)CNC(=O)C1CC1 (configuration not stated) the screen gave T. brucei: -34.78%; Leishmania in macrophages: -3.252%.
With Cc1c(C(=O)N(C)CC(C)O)sc2nc(C(F)(F)F)ccc12 (configuration not stated) the screen gave T. brucei: -102.7%; Leishmania in macrophages: 23.1%.
With OCc1nnc2n1CCN(c1cnccn1)C2 the screen gave T. brucei: -48.2%; Leishmania in macrophages: 19.74%.
With CS(=O)(=O)N1CCCC12CCCN(C(=O)c1ccc3[nH]ccc3c1)C2 (configuration not stated) the screen gave T. brucei: -92.88%; Leishmania in macrophages: 12.57%.
With O=C(c1ccoc1)N1CCC2(C1)CN(c1nccs1)C2 the screen gave T. brucei: -5.98%; Leishmania in macrophages: 19.74%.
With CN(C)C(=O)CN1CCOCC2(C1)CN(c1ncc(F)cn1)CCO2.O=C(O)C(F)(F)F (configuration not stated) the screen gave T. brucei: -76.02%; Leishmania in macrophages: 17.7%.
With Cc1cccc(C)c1Oc1ncccc1CNC(=O)C1COC(=O)N1 (configuration not stated) the screen gave T. brucei: 52.62%; Leishmania in macrophages: 36.56%.
With Cc1nc(NCCCn2cccn2)c2c(n1)c(C)nn2C the screen gave T. brucei: -14.56%; Leishmania in macrophages: -31.03%.
With CN(CC(=O)NCCc1ccccn1)C(=O)c1cccs1 the screen gave T. brucei: -39.88%; Leishmania in macrophages: -52.22%.
With CN(C)Cc1ccnc(C2CCCN2Cc2cc3ccccc3s2)n1 (configuration not stated) the screen gave T. brucei: 2.007%; Leishmania in macrophages: -1.407%.
With Cc1ccc(CN(Cc2cccnc2)C2CC(C)(C)NC(C)(C)C2)s1.O=C(O)CC(O)(CC(=O)O)C(=O)O the screen gave T. brucei: 78.89%; Leishmania in macrophages: 42%.
With COc1cccc2c1OCC(Cc1cc(C(N)=O)ccn1)C2 (configuration not stated) the screen gave T. brucei: -5.709%; Leishmania in macrophages: 69.64%.
With NC(=O)CN1CCC2(CC1)C[C@@H](O)[C@H](c1ccccc1)NC2=O the screen gave T. brucei: 6.152%; Leishmania in macrophages: 7.991%.
With Cn1ccnc1CNC(=O)CCc1cccc(F)c1 the screen gave T. brucei: 5.09%; Leishmania in macrophages: 30.02%.
With CC(=O)N1CCc2c(nc(-c3ccncc3)nc2N(C)CC(O)CO)C1 (configuration not stated) the screen gave T. brucei: 14.43%; Leishmania in macrophages: 3.796%.
With CCCN1CCC(CNC(=O)C2(c3cccc(C)c3)CC2)C1 (configuration not stated) the screen gave T. brucei: 11.9%; Leishmania in macrophages: 20.54%.
With O=C(O)C(F)(F)F.c1coc(CN2CCCn3c(nnc3Cn3cccc3)C2)c1 the screen gave T. brucei: -48%; Leishmania in macrophages: 1.999%.
With CSc1nccc(N2CCC(NCc3nc(C)cc(C)n3)CC2)n1 the screen gave T. brucei: -129.9%; Leishmania in macrophages: 6.649%.
With CC(C)(C)CNC1(Cc2cc(C(C)(C)O)on2)COC1 the screen gave T. brucei: -4.185%; Leishmania in macrophages: 15.16%.
With COc1ccc(-c2ccncc2)cc1CNC1CCCC1 the screen gave T. brucei: 9.921%; Leishmania in macrophages: 14.44%.
With Cc1cccc(CN2CC3C[C@]3(NC(=O)c3cccc(F)c3)C2)n1.O=C(O)C(F)(F)F (some centres not stated) the screen gave T. brucei: -43.5%; Leishmania in macrophages: 12.95%.
With CC(C)Cn1cncc1CNC1CCSCC1 the screen gave T. brucei: -43.43%; Leishmania in macrophages: -24.62%.
With COc1cc(C)sc1C(=O)N1CCCCC1c1ccccn1 (configuration not stated) the screen gave T. brucei: -6.339%; Leishmania in macrophages: -17.46%.
With CCn1ccnc1CN1CCCC1Cn1cc(C)cn1 (configuration not stated) the screen gave Leishmania in macrophages: 15.41%.

The first 3 entries again:

For Cc1c(C(=O)N2CCSCC2)sc2nc(C(F)(F)F)ccc12 the result was T. brucei: -86.27%; Leishmania in macrophages: 32.18%.
For CC(C)Cc1nc(CS(=O)(=O)c2ccccc2)no1 the result was T. brucei: -23.71%; Leishmania in macrophages: -39.37%.
For Cc1ccc([C@@H]2CN(C(=O)c3ccsc3)C[C@H]2NC(=O)C2CC2)cc1 the result was T. brucei: 11.06%; Leishmania in macrophages: -9.554%.

Measurements from “University of Dundee, Small-Polar-MMV Screening Library” (2021), ChEMBL document CHEMBL3988442.